The subject of assay [1] is MIA PaCa-2 parental. As to the kind of experiment: parental cell viability relative to untreated parental control; higher = more surviving cells. The settings on record: treatment time: 9 days.
Assay [2] relates to MIA PaCa-2 persister. In words: persister cell viability relative to untreated persister control; higher = more surviving persister cells. The note with it: treatment time: 9 days; cell state: persister (100 nM gemcitabine + 100 nM Torin1).

This is one part of the list. Single values are uncertain, as repeats are few or missing.

Regarding `Cc1c[nH]c2nccc(Oc3c(F)cc(Nc4cc(Cl)nc(N)n4)cc3F)c12` [Azaindole 1] (inhibitor concentration: 1µM), the parental cell viability in assay [1] stood at 39%. In addition, the persister cell viability in assay [2] came to 56%.

Turning to `CC(=O)Nc1cccc(-n2c(=O)n(C3CC3)c(=O)c3c(Nc4ccc(I)cc4F)n(C)c(=O)c(C)c32)c1` [Trametinib] (inhibitor concentration: 3µM), in assay [1], the parental cell viability is 20%. The persister cell viability in assay [2] was found to be 100%.

In the case of `CCCc1cc(C)[nH]c(=O)c1CNC(=O)c1cc(-c2ccnc(N3CCN(C)CC3)c2)cc2c1cnn2C(C)C` (inhibitor concentration: 10µM), in assay [1], the parental cell viability was found to be 77%. Moreover, in assay [2], the persister cell viability stood at 107%.

With `CCN(CC)CCCC(C)Nc1ccnc2cc(Cl)ccc12` (stereo not given) [Chloroquine] (inhibitor concentration: 10µM), the parental cell viability in assay [1] is 95%. Besides, in assay [2], the persister cell viability is 10%.

For the molecule `CC(C)c1cnn2c(NCc3ccccc3-n3cccn3)nc(OC3CCCNC3)nc12` (stereo not given) (inhibitor concentration: 300nM), in assay [1], the parental cell viability worked out at 102%. The persister cell viability in assay [2] was found to be 160%.

As to `CC(C)(C#N)c1ccc(N2C(=O)OCc3cnc4ccc(-c5cnc6ccccc6c5)cc4c32)cc1` (inhibitor concentration: 10µM), the parental cell viability in assay [1] is 100%. In assay [2], the persister cell viability stood at 104%.

Turning to `CN1CCN(c2ccc(-c3ccncc3-c3cc(F)c(O)c(F)c3)cc2)CC1` (inhibitor concentration: 1µM), in assay [1], the parental cell viability amounted to 90%. Also, in assay [2], the persister cell viability turned out to be 215%.

In the case of `Cc1nn(-c2nc3ccc(Cl)c(Cl)c3[nH]2)c(O)c1C1OC(=O)c2ccccc21` (stereo not given) (inhibitor concentration: 10µM), in assay [1], the parental cell viability turned out to be 100%. In assay [2], the persister cell viability was 66.7%.

With `Cc1[nH]c2ccccc2c1CCNCc1ccc(/C=C/C(=O)NO)cc1` [Panobinostat] (inhibitor concentration: 10nM), the parental cell viability in assay [1] amounted to 97.5%. For the same molecule, the persister cell viability in assay [2] came to 50%.

Take `Cn1cc(-c2ccc(F)c(C(F)(F)F)c2)nc1C1CCN(c2ncnc3[nH]ncc23)CC1` (inhibitor concentration: 1µM): the parental cell viability in assay [1] amounted to 105%. Further, the persister cell viability in assay [2] came to 200%.

Consider `CCOC(=O)CCNc1cc(N2CCc3ccccc3CC2)nc(-c2ccccn2)n1` (inhibitor concentration: 1µM), for which the parental cell viability in assay [1] is 10%. The persister cell viability in assay [2] was 79%.

With `CC(C)c1cc(C(=O)N2Cc3ccc(CN4CCN(C)CC4)cc3C2)c(O)cc1O` [Onalespib] (inhibitor concentration: 30nM), the parental cell viability in assay [1] amounted to 60%. For the same molecule, in assay [2], the persister cell viability worked out at 100%.

With `Cc1c(F)cc(C(=O)NC2CC2)cc1-c1ccc(C(=O)NCC(C)(C)C)cn1` [Losmapimod] (inhibitor concentration: 10µM), in assay [1], the parental cell viability is 95%. For the same molecule, the persister cell viability in assay [2] turned out to be 97.5%.

In the case of `Cc1cc(Nc2ncc(Cl)c(Nc3ccccc3S(=O)(=O)C(C)C)n2)c(OC(C)C)cc1C1CCNCC1` [Ceritinib] (inhibitor concentration: 1µM), the parental cell viability in assay [1] was found to be 100%. Further, the persister cell viability in assay [2] is 99%.

As to `Oc1c(F)cc(-c2cnccc2-c2ccc(N3CCOCC3)cc2)cc1F` (inhibitor concentration: 30µM), the parental cell viability in assay [1] worked out at 106%. In addition, the persister cell viability in assay [2] was found to be 180%.

For the molecule `Fc1ccc(CNc2ncnc3ccc(F)cc23)cc1` [Spautin-1] (inhibitor concentration: 30µM), the parental cell viability in assay [1] was 90%. In addition, in assay [2], the persister cell viability is 51%.

With `O=C1c2ccccc2-[n+]2ccc3c([nH]c4ccccc43)c21` [Fascaplysin (chloride)] (inhibitor concentration: 100nM), the parental cell viability in assay [1] came to 99%. For the same molecule, the persister cell viability in assay [2] worked out at 49%.

In the case of `CC(C)(C(N)=O)C(=O)NCCCNc1nc(Nc2cccc(NC(=O)N3CCCC3)c2)ncc1Br` (inhibitor concentration: 3µM), in assay [1], the parental cell viability amounted to 90%. In assay [2], the persister cell viability was 195%.

Regarding `C/C(=C1/C(=O)Nc2ccc(NC(N)=O)cc21)c1ccc[nH]1` (inhibitor concentration: 3µM), the parental cell viability in assay [1] stood at 95%. Besides, the persister cell viability in assay [2] was determined as 95%.

Turning to `Cc1cc(-c2ccccc2)cc(C(=O)NNS(=O)(=O)c2ccccc2)c1F` (inhibitor concentration: 30µM), the parental cell viability in assay [1] is 98.5%. Also, the persister cell viability in assay [2] was 93%.

Regarding `Cc1onc(C(=O)N2CCN(C(c3ccc(Cl)cc3)c3ccc(Cl)cc3)CC2)c1[N+](=O)[O-]` (inhibitor concentration: 100nM), in assay [1], the parental cell viability was determined as 103%. The persister cell viability in assay [2] worked out at 25%.

As to `Cc1c(C(=O)Nc2ccc(N3C[C@@H](C)O[C@@H](C)C3)nc2)cccc1-c1ccc(OC(F)(F)F)cc1` [Sonidegib] (inhibitor concentration: 3µM), the parental cell viability in assay [1] worked out at 62%. Further, in assay [2], the persister cell viability worked out at 58%.

As to `O=C(O)c1ccc2c(c1)nc(Nc1cccc(Cl)c1)c1ccncc12` [CX-4945/Silmitasertib] (inhibitor concentration: 3µM), the parental cell viability in assay [1] worked out at 105%. Also, the persister cell viability in assay [2] was 61%.

As for `CC(C)C[C@@H](C=O)NC(=O)[C@H](CC(C)C)NC(=O)[C@H](CC(C)C)NC(=O)OCc1ccccc1` (inhibitor concentration: 300nM), the parental cell viability in assay [1] was determined as 90%. Also, in assay [2], the persister cell viability is 75%.

As for `CC(=O)N[C@@H](CCCCN)C(=O)O` [N-acetyl-L-lysine] (inhibitor concentration: 10µM), in assay [1], the parental cell viability came to 100%. Also, the persister cell viability in assay [2] worked out at 99%.

Source of the values: the supplement of paper PMC9671908.
